Counter-ions that a name gives are not always drawn. This is one part of the list. This data set is noisy: repeats of one test often differ as much as different tests do.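 Test system: Schistosoma mansoni schistosomula, roughly 40 per well, imaged in bright field over time and compared with wells given 0.1% DMSO. Distance read-out: the paper calls a drug a hit when its Mahalanobis distance is at least 2.47, three standard deviations above the DMSO control mean. Degeneracy is the share of worms classified opaque.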

In this experiment the test system is Schistosoma mansoni schistosomula. Put plainly: degeneracy (percent of somules classified as degenerate/opaque); higher = more parasite degeneration/death; extreme values may be limits of the assay. To be noted: 10 µM; 72 h.
On to `Cc1ncc(C[n+]2csc(CCO)c2C)c(N)n1` [Thiamine], for which the degeneracy came out at 5.13%.

Turning to `CC(C)c1c(C(=O)Nc2ccccc2)c(-c2ccccc2)c(-c2ccc(F)cc2)n1CC[C@@H](O)C[C@@H](O)CC(=O)O` [Atorvastatin Calcium], the degeneracy turned out to be 76.9%.

Turning to `O=C(O)CN1C(=O)c2cccc3cccc(c23)C1=O` [Alrestatin], the degeneracy was 25%.

On to `CCCCN(CCCC)CCCOC(=O)c1ccc(N)cc1` [Butacaine], for which the degeneracy was 0%.

Turning to `Cc1ccc(C(=O)c2ccc(CC(=O)O)n2C)cc1` [Tolmetin Sodium], the degeneracy amounted to 10.7%.

`CC(=O)OCC(=O)[C@@]1(O)CC[C@H]2[C@@H]3CCC4=CC(=O)C=C[C@]4(C)[C@@]3(Cl)[C@@H](Cl)C[C@@]21C` [Dichlorisone Acetate]: the degeneracy turned out to be 3.57%.

Turning to `O=C(O)CCCCCCCC(=O)O` [Azelaic Acid], the degeneracy came out at 5.26%.

As to `C=C1CC[C@H](O)C/C1=C/C=C1\CCC[C@]2(C)[C@@H]([C@H](C)CCCC(C)C)CC[C@@H]12` [Cholecalciferol], the degeneracy stood at 13.3%.

In turn, `Cc1nccnc1N1CCCCC1` [Modaline Sulfate] displayed a degeneracy of 10.7%.

As to `CC(=O)S[C@@H]1CC2=CC(=O)CC[C@]2(C)[C@H]2CC[C@@]3(C)[C@@H](CC[C@@]34CCC(=O)O4)[C@H]12` [Spironolactone], the degeneracy is 14.3%.

The molecule `CC(Cc1cccc(C(F)(F)F)c1)NCCOC(=O)c1ccccc1` (stereo not given) [Benfluorex Hydrochloride] showed a degeneracy of 100%.

`CN1CCC(=C2c3ccccc3C=Cc3ccccc32)CC1` [Cyproheptadine]: the degeneracy worked out at 28.6%.

In turn, `CO[C@H]1/C=C/O[C@@]2(C)Oc3c(C)c(O)c4c(O)c(c(/C=N/N5CCN(C6CCCC6)CC5)c(O)c4c3C2=O)NC(=O)/C(C)=C\C=C\[C@H](C)[C@H](O)[C@@H](C)[C@@H](O)[C@@H](C)[C@H](OC(C)=O)[C@@H]1C` [Rifapentine] showed a degeneracy of 10.3%.

Turning to `CC(C)(CO)[C@@H](O)C(=O)NCCC(=O)NCCSSCCNC(=O)CCNC(=O)[C@H](O)C(C)(C)CO` [Pantethine], the degeneracy is 0%.

The molecule `CN1CCN(CC/C=C2/c3ccccc3Sc3ccc(S(=O)(=O)N(C)C)cc32)CC1` [Thiothixene] had a degeneracy of 100%.

The molecule `O=C(O)Cc1ccc(-c2ccccc2)cc1` [Felbinac] gave a degeneracy of 8.33%.

`O=C(O)c1cn(-c2ccc(F)cc2)c2cc(N3CCNCC3)c(F)cc2c1=O` [Sarafloxacin Hydrochloride] returned a degeneracy of 6.52%.

Molecule `CC(=O)OCC(=O)[C@@]1(O)[C@@H](C)C[C@H]2[C@@H]3CCC4=CC(=O)C=C[C@]4(C)[C@@]3(F)[C@@H](O)C[C@@]21C` [Betamethasone Acetate] gave a degeneracy of 8%.

For the molecule `CN1CCN(C2=Nc3ccccc3Oc3ccc(Cl)cc32)CC1` [Loxapine Succinate], the degeneracy was 0%.

On to `CC(C)CC(N)=O` [Isovaleramide], for which the degeneracy was determined as 9.09%.

Molecule `Oc1ccc2ccccc2c1` [Beta-naphthol] yielded a degeneracy of 100%.

The molecule `CN(C)CCCN1c2ccccc2Sc2ccc(C(F)(F)F)cc21` [Triflupromazine Hydrochloride] displayed a degeneracy of 100%.

On to `CC(=O)Oc1ccccc1C(=O)Nc1ncc([N+](=O)[O-])s1` [Nitazoxanide], for which the degeneracy stood at 100%.

As for `CC1(C)OC(=O)C(OCC2CC2)=C1c1ccc(S(C)(=O)=O)cc1` [Firocoxib], the degeneracy amounted to 7.69%.

Molecule `CCN(CC)CCOC(=O)C1(C2CCCCC2)CCCCC1` [Dicyclomine] returned a degeneracy of 100%.

Regarding `CCCCOCCOCCOCc1cc2c(cc1CCC)OCO2` [Piperonyl Butoxide], the degeneracy came to 3.45%.

`CC[N+](C)(CC)CCOC(=O)C(O)(c1ccccc1)C1CCCCC1` (stereo not given) [Oxyphenonium Bromide] came in with a degeneracy of 8.11%.

The molecule `CN(C)CCc1c[nH]c2ccc(C[C@H]3COC(=O)N3)cc12` [Zolmitriptan] yielded a degeneracy of 2.63%.

`CN(C)CCC=C1c2ccccc2C=Cc2ccccc21` [Cyclobenzaprine]: the degeneracy stood at 100%.

With `O=c1[nH]c(=O)n([C@H]2C[C@H](O)[C@@H](CO)O2)cc1F` [Floxuridine], the degeneracy turned out to be 88%.

Take `CC1=C(/C=C/C(C)=C/C=C/C(C)=C/C(=O)Nc2ccc(O)cc2)C(C)(C)CCC1` [Fenretinide]: the degeneracy amounted to 100%.

`Nc1ncnc2c1ncn2[C@@H]1O[C@H](COP(=O)(O)O)[C@@H](O)[C@H]1O` [Adenosine Phosphate]: the degeneracy was found to be 19.1%.

Regarding `CCC(=O)O[C@H]1[C@H](O[C@@H]2[C@@H](C)[C@H](O[C@H]3C[C@@](C)(OC)[C@@H](O)[C@H](C)O3)[C@@H](C)C(=O)O[C@H](CC)[C@@](C)(O)[C@H](O)[C@@H](C)C(=O)[C@H](C)C[C@@]2(C)O)O[C@H](C)C[C@@H]1N(C)C` [Erythromycin Propionate], the degeneracy is 100%.

Regarding `CC(=O)Oc1cc(C(C)C)c(OCCN(C)C)cc1C` [Moxisylyte Hydrochoride], the degeneracy came out at 4.65%.

With `O=C(O)c1cc(O)c2c(c1)[C@H]([C@H]1c3cc(C(=O)O)cc(O)c3C(=O)c3c(O[C@@H]4O[C@H](CO)[C@@H](O)[C@H](O)[C@H]4O)cccc31)c1cccc(O[C@@H]3O[C@H](CO)[C@@H](O)[C@H](O)[C@H]3O)c1C2=O` [Sennoside A], the degeneracy came to 4.65%.

As to `CN(C)CCCOc1nn(Cc2ccccc2)c2ccccc12` [Benzydamine Hydrochloride], the degeneracy is 37.5%.

Turning to `S=C=Nc1ccc(N=C=S)cc1` [Bitoscanate], the degeneracy stood at 100%.

`OC[C@@H](O)[C@@H](O)[C@H](O)[C@@H](O)CO` [Sorbitol] came in with a degeneracy of 0%.

`COc1cc(C(=O)N2CCOCC2)cc(OC)c1OC` [Trimetozine] yielded a degeneracy of 2.78%.

`COc1cc2nc(N3CCN(C(=O)C4CCCO4)CC3)nc(N)c2cc1OC` (stereo not given) [Terazosin] had a degeneracy of 0%.

For `C[C@H]1C[C@H]2[C@@H]3CCC4=CC(=O)C=C[C@]4(C)[C@@]3(Cl)[C@@H](O)C[C@]2(C)[C@@]1(O)C(=O)CO` [Beclomethasone], the degeneracy worked out at 17.8%.

As for `CC1CCC(NC(=O)N(CCCl)N=O)CC1` (stereo not given) [Semustine], the degeneracy worked out at 6.06%.

Regarding `Nc1ccc(S(=O)(=O)Nc2ccc(Cl)nn2)cc1` [Sulfachlorpyridazine], the degeneracy was 6.06%.

On to `Cc1cc2nc3ccc(N(C)C)cc3[s+]c2cc1N` [Tolonium Chloride], for which the degeneracy came out at 100%.

For the molecule `C=C1/C(=C\C=C2/CCC[C@]3(C)[C@@H]([C@H](C)CCCC(C)(C)O)CC[C@@H]23)C[C@@H](O)C[C@@H]1O` [Calcitriol], the degeneracy turned out to be 10%.

As for `CC(C)(O/N=C(\C(=O)N[C@@H]1C(=O)N2C(C(=O)[O-])=C(C[n+]3ccccc3)CS[C@H]12)c1csc(N)n1)C(=O)O` [Ceftazidime], the degeneracy was determined as 2.94%.

`Cc1ccc(/C(=C\CN2CCCC2)c2ccccn2)cc1` [Triprolidine Hydrochloride] showed a degeneracy of 46.1%.

In turn, `CNCCC=C1c2ccccc2CCc2ccccc21` [Nortriptyline] displayed a degeneracy of 100%.

Regarding `CC(=O)Nc1c(I)c(NC(C)=O)c(I)c(C(=O)O)c1I` [Diatrizoic Acid], the degeneracy turned out to be 5.26%.

`O=C(N/N=C/c1ccc([N+](=O)[O-])o1)c1ccc(O)cc1` [nifuroxazide] displayed a degeneracy of 100%.

`CN1CCN(C(c2ccccc2)c2ccc(Cl)cc2)CC1` (stereo not given) [Chlorcyclizine Hydrochloride]: the degeneracy was 10.5%.

Molecule `Cc1ccc(S(=O)(=O)NCl)cc1` [Chloramine-t] gave a degeneracy of 1.89%.

Molecule `CS(=O)(=O)Nc1ccc([N+](=O)[O-])cc1Oc1ccccc1` [Nimesulide] displayed a degeneracy of 12.1%.

The molecule `CCC1=C[C@@H]2CN(C1)Cc1c([nH]c3ccccc13)[C@@](C(=O)OC)(c1cc3c(cc1OC)N(C)[C@H]1[C@@](O)(C(=O)OC)[C@H](OC(C)=O)[C@]4(CC)C=CCN5CC[C@]31[C@@H]54)C2` [Vinorelbine] had a degeneracy of 5.56%.

Consider `OCc1ccccc1` [Benzyl Alcohol], for which the degeneracy came to 6.45%.

As for `CNC(=C[N+](=O)[O-])NCCSCc1csc(CN(C)C)n1` [Nizatidine], the degeneracy was determined as 13.8%.

As for `C[C@]12C=CC(=O)C=C1CC[C@@H]1[C@@H]2C(=O)C[C@@]2(C)[C@H]1CC[C@]2(O)C(=O)CO` [Prednisone], the degeneracy is 6.06%.

`NS(=O)(=O)c1ccc(C(=O)O)cc1` [Carzenide] yielded a degeneracy of 9.52%.

Consider `CCOc1ccccc1C(N)=O` [Ethenzamide], for which the degeneracy was found to be 4.17%.

Regarding `CO[C@H]1C[C@@H]2CC[C@@H](C)[C@@](O)(O2)C(=O)C(=O)N2CCCC[C@H]2C(=O)O[C@H]([C@H](C)C[C@@H]2CC[C@@H](O)[C@H](OC)C2)CC(=O)[C@H](C)/C=C(\C)[C@@H](O)[C@@H](OC)C(=O)[C@H](C)C[C@H](C)/C=C/C=C/C=C/1C` [Rapamycin], the degeneracy is 68.2%.

Molecule `CO[C@H]1C[C@@H]2CC[C@@H](C)[C@@](O)(O2)C(=O)C(=O)N2CCCC[C@H]2C(=O)O[C@H]([C@H](C)C[C@@H]2CC[C@@H](O)[C@H](OC)C2)CC(=O)[C@H](C)/C=C(\C)[C@@H](O)[C@@H](OC)C(=O)[C@H](C)C[C@H](C)/C=C/C=C/C=C/1C` [Sirolimus] yielded a degeneracy of 25%.

Consider `C#C[C@]1(O)CC[C@H]2[C@@H]3CCc4cc(OC)ccc4[C@H]3CC[C@@]21C` [Mestranol], for which the degeneracy was determined as 100%.

Regarding `O=C(O)P(=O)(O)O` [Foscarnet Sodium], the degeneracy was determined as 0%.

The molecule `CCCCCCCCCCCCCCCC[N+](C)(C)CCN(Cc1ccc(OC)cc1)c1ncccn1` [Thonzonium Bromide] gave a degeneracy of 69.6%.

For the molecule `CNC(=C[N+](=O)[O-])NCCSCc1ccc(CN(C)C)o1` [Ranitidine], the degeneracy stood at 7.14%.

`COC(=O)[C@H]1[C@H]2C[C@@H]3c4[nH]c5cc(OC)ccc5c4CCN3C[C@H]2C[C@@H](OC(=O)c2cc(OC)c(OC)c(OC)c2)[C@@H]1OC` [reserpine] came in with a degeneracy of 60%.

For the molecule `CN1C(=O)CC(C)(c2ccccc2)C1=O` (stereo not given) [Methsuximide], the degeneracy worked out at 2.44%.

`CC(C)(CO)[C@@H](O)C(=O)NCCCO` [Dexpanthenol] registered a degeneracy of 2.13%.

On to `NS(=O)(=O)c1cc2c(cc1Cl)N=C(CSCc1ccccc1)NS2(=O)=O` [Benzthiazide], for which the degeneracy was found to be 6.45%.

Regarding `CC(=O)OC/C=C(C)/C=C/C=C(C)/C=C/C1=C(C)CCCC1(C)C` [Retinyl Acetate], the degeneracy came to 13.8%.

These data come from the supplement of paper PMC7752906.
